In patent US20160046678A1 (ZYNGENIA, published 2016):
No constants are given. Whether binding was seen depends on the method and setting. Some binding calls cover weakened binding; strength is not graded here.

T1: TL1A (UniProt O95150)
T1 sequence (looked up): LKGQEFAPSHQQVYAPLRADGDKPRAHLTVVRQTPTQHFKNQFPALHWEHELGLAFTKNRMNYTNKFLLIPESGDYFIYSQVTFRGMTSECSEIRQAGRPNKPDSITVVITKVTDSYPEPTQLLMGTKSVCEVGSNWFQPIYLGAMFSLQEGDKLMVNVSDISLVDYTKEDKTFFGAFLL


target: T1, TL1A; assay: peptide selection, Example 48

Row | Binder | binding
1 | DYAVCWDEHKQKLEFCRTFI [TLA301] | binds
2 | QLDVCWDDHYQKLYFCYARI [TLA304] | binds
3 | RLDVCWDEHASKLVFCRSYM [TLA328] | binds
4 | RWAVCWDTDRQKLLFCGPML [TLA325] | binds
5 | DYAVCWDVGLEKLVWCKGSL [TLA312] | binds
6 | LDQVCWDLYANKLIFCADVI [TLA315] | binds
7 | RSEVCWDTHLFKLVYCQDWF [TLA337] | binds
8 | EYAVCWDEVQDKLVWCNGVN [TLA333] | binds
9 | SSNVCWDDVLETLRFCHTHM [TLA314] | binds
10 | EYSVCWVVDQEKLVWCRSLH [TLA310] | binds
11 | QYAVCWDEALEKLLWCKELH [TLA307] | binds
12 | PNEVCWDSHKEKLVFCTHQM [TLA318] | binds
13 | PDTVCWDDHLGKLMFCSSIM [TLA339] | binds
14 | LDTVCWDIHSGRLVFCASLL [TLA330] | binds
15 | EYALCWDDPLEKLQWCKDIS [TLA331] | binds
16 | NLDVCWDNNRGKLMFCRNHD [TLA316] | binds
17 | EYALCWNEVQEKLVWCKELN [TLA332] | binds
18 | QSYVCWDEHQSRLRFCSETI [TLA338] | binds
19 | EYAVCWDEVQERLEWCTRPN [TLA334] | binds

Row | Binder | binding
20 | QSSVCWDYNSQKLRFCDMSL [TLA327] | binds
21 | SLDVCWDHHLDKLTFCNLNM [TLA303] | binds
22 | EYALCWLEAQEKLDWCTELN [TLA319] | binds
23 | DYAVCWSEAQDKLEWCIGHN [TLA308] | binds
24 | EYAVCWDEAPEKLIWCEGLN [TLA324] | binds
25 | EFAVCWDDGQEKLVWCNRLH [TLA335] | binds
26 | ENAVCWDESQEKLVWCNGIR [TLA321] | binds
27 | EYAVCWNEARGKLEYCTALK [TLA300] | binds
28 | PPAVCWDNNSSKLVFCHSFI [TLA313] | binds
29 | EYALCWNEVHEQLEFCIGRN [TLA336] | binds
30 | ESDVCWNENVEQLEFCNGRF [TLA323] | binds
31 | SYDVCWDSRLTKLVYCNASN [TLA306] | binds
32 | EYAVCWSEAQGKLEWCQGSN [TLA311] | binds
33 | EYTVCWDASNEKLYFCHYPL [TLA302] | binds
34 | ISAVCWDTQLQKLVFCNASM [TLA329] | binds
35 | EYAVCWVEEHEKLLWCEGLN [TLA309] | binds
36 | LDLVCWDENSQKLLFCTKPG [TLA326] | binds
37 | SYAVCWNALEEKLVFCTDEI [TLA317] | binds

The next lines start with the values.

Row | binding | Binder
38 | binds | STDVCWDRDHDKLMFCMSVR [TLA370]
39 | binds | KSEVCWDYDMNKLMFCFYDM [TLA360]
40 | binds | AQYVCWDDKEQKLKFCEDQM [TLA350]
41 | binds | LQDVCWDLYYQKLYFCHQPM [TLA369]
42 | binds | DTDVCWDHVQGKLYFCTKSL [TLA367]
43 | binds | RFFVCWDHDNSKLVFCSQNM [TLA353]
44 | binds | HSDVCWDDHMDKLAFCWHMI [TLA341]
45 | binds | AFDVCWVEALEKLEWCLGHN [TLA357]
46 | binds | RNHVCWDEYTEKLRFCGDGA [TLA340]
47 | binds | RSDVCWDAHLDKLIFCAGVM [TLA362]
48 | binds | LSMVCWDQHQERLVFCINRM [TLA349]
49 | binds | FTAVCWDYHSNKLQFCSTLM [TLA342]
50 | binds | SSDVCWEAHSEKLYFCDPAR [TLA358]
51 | binds | EYAVCWNEDHAKLEWCQELN [TLA347]
52 | binds | EYDLCWDEIRQKLEWCQGLT [TLA344]
53 | binds | DHAVCWNEFQEKLDWCTGLN [TLA364]
54 | binds | KHFVCWDELNEKLVWCKGLI [TLA346]
55 | binds | KLYVCWDKYKEKLVFCQALM [TLA359]
56 | binds | EYAVCWDESLEKLEWCTGLY [TLA373]
57 | binds | NEFVCWDEYKNKLVFCVPTL [TLA352]
58 | binds | LDAVCWDTQQQKLRFCHTHM [TLA361]
59 | binds | EYAVCWDAENEKLEWCEGLN [TLA345]
60 | binds | RYAVCWDESTEKLVYCQNQM [TLA351]
61 | binds | QNDVCWDYHRGKLAFCEALI [TLA366]
62 | binds | EYAVCWDEAQQRLIWCKGLY [TLA374]
63 | binds | TSDVCWNYHYSKLQFCQQSM [TLA368]
64 | binds | RYAVCWDEAQEKLVWCGRVN [TLA356]
65 | binds | DYAVCWDEAQGKLGWCIGMN [TLA371]
66 | binds | EYAVCWDDAQERLEWCKEPL [TLA372]
67 | binds | DYAVCWDDVRGKLVWCKGLK [TLA343]
